Earlier results in patent US5668173A, “Method of increasing the conversion of homocysteine to methionine and uses thereof” (priority 1996, dated 1997).
At least one structure is not confirmed: it was looked up by name or label, or the drawing left a doubt.

Columns and labels:
cystathionine-b-synthase = conditions: cited from earlier work
[1] = tested on: methylenetetrahydrofolate reductase; conditions: cited from earlier work

C[S+](CC[C@H](N)C(=O)O)C[C@H]1O[C@@H](n2cnc3c(N)ncnc32)[C@H](O)[C@@H]1O (some centres unmarked) [S-adenosylmethionine]
modulation of cystathionine-b-synthase (cystathionine-b-synthase): allosteric activator | inhibition of methylenetetrahydrofolate reductase [1]: potent inhibitor
